Reference: article PMC7524721
No constants are given. Whether binding was seen depends on the method and setting. Binding seen in cells or lysates may run through a third protein. Some binding calls cover weakened binding; strength is not graded here.

Protein sequences, listed by entry. Tags and fused reporters are not part of them.
UniProt Q9UKV8: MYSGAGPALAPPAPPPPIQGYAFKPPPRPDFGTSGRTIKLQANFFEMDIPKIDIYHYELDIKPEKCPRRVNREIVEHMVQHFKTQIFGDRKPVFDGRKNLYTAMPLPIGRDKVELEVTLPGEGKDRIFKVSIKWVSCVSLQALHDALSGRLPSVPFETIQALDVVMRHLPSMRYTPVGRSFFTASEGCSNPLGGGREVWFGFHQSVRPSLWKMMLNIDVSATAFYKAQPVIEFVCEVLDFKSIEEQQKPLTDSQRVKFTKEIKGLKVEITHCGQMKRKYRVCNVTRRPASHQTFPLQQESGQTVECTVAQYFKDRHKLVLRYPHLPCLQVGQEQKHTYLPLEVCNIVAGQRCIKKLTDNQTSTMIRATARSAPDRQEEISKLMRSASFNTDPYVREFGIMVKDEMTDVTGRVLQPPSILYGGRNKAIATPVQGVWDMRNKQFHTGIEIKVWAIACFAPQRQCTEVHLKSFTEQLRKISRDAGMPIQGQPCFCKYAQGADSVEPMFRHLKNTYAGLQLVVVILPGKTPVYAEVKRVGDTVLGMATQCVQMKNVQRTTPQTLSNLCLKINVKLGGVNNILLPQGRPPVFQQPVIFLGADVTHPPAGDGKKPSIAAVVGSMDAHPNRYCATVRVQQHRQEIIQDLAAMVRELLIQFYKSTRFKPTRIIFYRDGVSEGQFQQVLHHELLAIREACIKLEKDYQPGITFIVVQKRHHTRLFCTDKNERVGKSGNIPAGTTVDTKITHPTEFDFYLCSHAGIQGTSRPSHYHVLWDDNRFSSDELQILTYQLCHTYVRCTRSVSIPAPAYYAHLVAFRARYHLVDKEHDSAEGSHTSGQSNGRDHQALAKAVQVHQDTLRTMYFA

How the values were obtained:
Assay in all cases: co-IP; HEK 293 T cells transfected and lysed; lysates cleared at 15,000g and 100,000g at 4 °C; Flag M2 sepharose beads 2 h at 4 °C; washed with lysis buffer; Western blot
[1] = biological target: T1, ANKS3 (not stated (human or mouse cDNA cloned)) (UniProt Q6ZW76)
T1 sequence: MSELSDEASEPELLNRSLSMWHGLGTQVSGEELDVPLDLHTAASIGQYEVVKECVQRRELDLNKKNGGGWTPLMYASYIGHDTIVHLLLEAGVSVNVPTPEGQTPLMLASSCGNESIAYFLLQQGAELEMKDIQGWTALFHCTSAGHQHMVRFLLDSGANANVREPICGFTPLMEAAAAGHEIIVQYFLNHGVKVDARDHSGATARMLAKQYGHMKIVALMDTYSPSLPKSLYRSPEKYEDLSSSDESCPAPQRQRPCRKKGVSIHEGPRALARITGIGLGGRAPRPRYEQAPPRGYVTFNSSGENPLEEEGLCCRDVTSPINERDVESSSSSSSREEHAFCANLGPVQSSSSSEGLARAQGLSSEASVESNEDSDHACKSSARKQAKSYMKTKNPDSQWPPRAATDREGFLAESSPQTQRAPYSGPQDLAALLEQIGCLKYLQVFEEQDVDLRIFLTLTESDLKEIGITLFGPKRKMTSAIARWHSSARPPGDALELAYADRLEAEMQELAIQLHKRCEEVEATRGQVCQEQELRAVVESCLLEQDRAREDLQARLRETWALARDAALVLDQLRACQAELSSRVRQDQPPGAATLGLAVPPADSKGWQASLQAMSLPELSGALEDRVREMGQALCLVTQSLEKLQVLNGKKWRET

[2] = biological target: T2, ANKS6 (NPHP16) (not stated (human or rat cDNA cloned)) (UniProt Q68DC2)
T2 sequence: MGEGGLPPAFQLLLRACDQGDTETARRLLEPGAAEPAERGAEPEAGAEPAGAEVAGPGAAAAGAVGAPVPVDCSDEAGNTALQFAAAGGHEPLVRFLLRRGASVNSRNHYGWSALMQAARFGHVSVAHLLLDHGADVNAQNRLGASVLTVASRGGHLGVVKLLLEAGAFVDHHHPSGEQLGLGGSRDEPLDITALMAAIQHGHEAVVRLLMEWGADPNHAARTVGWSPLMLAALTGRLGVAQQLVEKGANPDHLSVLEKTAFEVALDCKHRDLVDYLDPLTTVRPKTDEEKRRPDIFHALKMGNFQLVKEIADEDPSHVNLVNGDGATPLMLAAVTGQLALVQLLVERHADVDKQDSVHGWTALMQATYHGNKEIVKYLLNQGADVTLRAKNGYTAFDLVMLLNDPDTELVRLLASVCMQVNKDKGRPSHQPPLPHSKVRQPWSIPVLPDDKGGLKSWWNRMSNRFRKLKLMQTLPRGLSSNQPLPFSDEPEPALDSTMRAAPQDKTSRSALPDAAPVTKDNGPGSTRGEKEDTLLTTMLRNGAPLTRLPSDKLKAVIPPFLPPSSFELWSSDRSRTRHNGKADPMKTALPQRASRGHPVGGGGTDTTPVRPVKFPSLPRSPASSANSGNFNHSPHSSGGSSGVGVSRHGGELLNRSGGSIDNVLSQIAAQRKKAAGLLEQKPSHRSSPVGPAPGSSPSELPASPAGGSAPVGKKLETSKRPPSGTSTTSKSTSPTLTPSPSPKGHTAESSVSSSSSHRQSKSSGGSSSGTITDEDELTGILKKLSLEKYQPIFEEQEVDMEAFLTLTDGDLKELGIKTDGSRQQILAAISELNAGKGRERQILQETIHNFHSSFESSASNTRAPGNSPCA

BICC1 (mouse) = biological target: T3, BICC1 (mouse) (UniProt Q99MQ1)
T3 sequence: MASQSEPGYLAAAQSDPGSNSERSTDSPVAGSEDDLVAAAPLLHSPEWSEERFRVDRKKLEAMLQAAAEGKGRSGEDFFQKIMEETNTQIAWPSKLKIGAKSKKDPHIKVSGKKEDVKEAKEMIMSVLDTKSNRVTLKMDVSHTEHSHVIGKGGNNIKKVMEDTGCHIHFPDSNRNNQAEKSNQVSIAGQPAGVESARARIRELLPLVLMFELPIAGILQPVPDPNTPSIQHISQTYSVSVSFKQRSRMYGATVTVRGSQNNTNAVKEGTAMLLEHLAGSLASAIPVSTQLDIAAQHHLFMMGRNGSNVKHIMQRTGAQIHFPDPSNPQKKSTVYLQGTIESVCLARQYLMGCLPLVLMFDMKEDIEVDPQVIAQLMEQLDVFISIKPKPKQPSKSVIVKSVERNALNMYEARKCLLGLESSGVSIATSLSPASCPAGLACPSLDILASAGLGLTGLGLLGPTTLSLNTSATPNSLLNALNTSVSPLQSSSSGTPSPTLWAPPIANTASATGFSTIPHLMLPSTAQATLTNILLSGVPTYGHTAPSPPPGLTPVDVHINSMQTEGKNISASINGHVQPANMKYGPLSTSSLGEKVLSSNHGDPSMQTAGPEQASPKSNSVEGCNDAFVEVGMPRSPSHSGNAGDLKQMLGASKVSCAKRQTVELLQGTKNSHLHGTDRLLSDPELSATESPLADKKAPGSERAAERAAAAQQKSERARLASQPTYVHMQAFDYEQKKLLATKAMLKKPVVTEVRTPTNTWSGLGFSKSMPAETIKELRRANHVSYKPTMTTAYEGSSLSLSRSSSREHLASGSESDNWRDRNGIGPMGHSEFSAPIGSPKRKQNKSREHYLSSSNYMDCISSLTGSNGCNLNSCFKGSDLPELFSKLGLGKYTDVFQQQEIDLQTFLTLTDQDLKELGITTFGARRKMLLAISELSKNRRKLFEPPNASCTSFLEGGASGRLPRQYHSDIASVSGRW

INVERSIN (NPHP2) (human) = biological target: T4, INVERSIN (NPHP2) (human) (UniProt Q9Y283)
T4 sequence: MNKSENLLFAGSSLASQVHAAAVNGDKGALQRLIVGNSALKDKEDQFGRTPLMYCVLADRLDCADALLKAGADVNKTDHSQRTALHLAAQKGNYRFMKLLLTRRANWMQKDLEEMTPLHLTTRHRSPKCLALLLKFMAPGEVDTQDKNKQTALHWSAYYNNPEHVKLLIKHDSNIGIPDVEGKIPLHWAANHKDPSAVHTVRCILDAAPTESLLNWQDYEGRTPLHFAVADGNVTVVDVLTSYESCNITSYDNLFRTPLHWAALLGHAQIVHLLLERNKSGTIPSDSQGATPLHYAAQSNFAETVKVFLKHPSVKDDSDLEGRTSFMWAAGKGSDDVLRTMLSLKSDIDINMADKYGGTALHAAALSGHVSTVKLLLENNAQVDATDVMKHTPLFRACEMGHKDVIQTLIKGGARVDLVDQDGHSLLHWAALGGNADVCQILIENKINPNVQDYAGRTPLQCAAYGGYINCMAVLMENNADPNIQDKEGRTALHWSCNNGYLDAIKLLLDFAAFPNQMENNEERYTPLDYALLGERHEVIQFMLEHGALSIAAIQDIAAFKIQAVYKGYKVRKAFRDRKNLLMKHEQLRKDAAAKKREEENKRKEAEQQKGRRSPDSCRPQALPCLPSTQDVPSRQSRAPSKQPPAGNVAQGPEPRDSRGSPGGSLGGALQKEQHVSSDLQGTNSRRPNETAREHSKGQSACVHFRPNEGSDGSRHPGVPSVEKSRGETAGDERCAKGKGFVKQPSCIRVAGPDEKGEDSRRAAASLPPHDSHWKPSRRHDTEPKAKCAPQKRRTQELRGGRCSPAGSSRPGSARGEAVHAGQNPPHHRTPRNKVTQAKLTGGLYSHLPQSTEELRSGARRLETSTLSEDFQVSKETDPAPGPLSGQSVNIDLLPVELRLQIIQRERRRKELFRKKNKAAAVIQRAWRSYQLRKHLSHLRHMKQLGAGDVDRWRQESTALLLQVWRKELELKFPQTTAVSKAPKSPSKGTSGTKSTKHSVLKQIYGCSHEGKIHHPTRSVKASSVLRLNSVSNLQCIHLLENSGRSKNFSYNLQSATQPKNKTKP

Measured: binding

AGO2 (from UniProt Q9UKV8 1-859)
binds: all assays above
